{
  "source": "paper PMC12446476",
  "about": "(Nature Communications, 2025)",
  "test_system": "N. gonorrhoeae",
  "assay": "In vitro time-kill assay",
  "format": "cell-based, Neisseria gonorrhoeae",
  "excerpt": "The 2024 WHO N. gonorrhoeae reference strains were used for quality control. Only whole MIC doubling dilutions are reported. Clinical breakpoints or the epidemiological cutoff (ECOFF, to indicate azithromycin resistance) from EUCAST (v14.0, https://www.eucast.org/clinical_breakpoints) were used to classify isolates as antimicrobial susceptible or resistant. […] Two times the standard inoculum defined by CLSI was used to establish consistent growth in untreated control samples for some strains. In vitro time-kill assays were performed according to CLSI guidelines[65] using Columbia Broth (BD Difco) supplemented with 1% IsoVitaleX Enrichment (BD). Viable bacterial counts were generated by plating 10-fold serially diluted samples on GC agar plates containing 1% IsoVitaleX Enrichment (BD).",
  "note": "Further values from the same series stand in other lists.",
  "data": [
    {"smiles": "Cc1c(CN(C)C(=O)/C=C/c2cnc3c(c2)N[C@H](C)[C@H](O)C(=O)N3)oc2ccccc12", "note": "[Debio 1453]", "values": [
      {"measurement": "Log10CFU/ml (time kill)", "setting": "WHO X, 2X MIC, 3 hr", "result": 4.83, "unit": "Log10CFU/ml"},
      {"measurement": "Log10CFU/ml (time kill)", "setting": "WHO X, 2X MIC, 6 hr", "result": 3.41, "unit": "Log10CFU/ml"},
      {"measurement": "Log10CFU/ml (time kill)", "setting": "WHO X, 2X MIC, 10 hr", "result": 2.30, "unit": "Log10CFU/ml"},
      {"measurement": "Log10CFU/ml (time kill)", "setting": "WHO X, 2X MIC, 24 hr", "result": 1.95, "unit": "Log10CFU/ml"},
      {"measurement": "Log10CFU/ml (time kill)", "setting": "WHO X, 4X MIC, 0 hr", "result": 5.84, "unit": "Log10CFU/ml"},
      {"measurement": "Log10CFU/ml (time kill)", "setting": "WHO X, 4X MIC, 1 hr", "result": 5.60, "unit": "Log10CFU/ml"},
      {"measurement": "Log10CFU/ml (time kill)", "setting": "WHO X, 4X MIC, 3 hr", "result": 4.00, "unit": "Log10CFU/ml"},
      {"measurement": "Log10CFU/ml (time kill)", "setting": "WHO X, 4X MIC, 6 hr", "result": 1.95, "unit": "Log10CFU/ml"},
      {"measurement": "Log10CFU/ml (time kill)", "setting": "WHO X, 4X MIC, 10 hr", "result": 1.95, "unit": "Log10CFU/ml"},
      {"measurement": "Log10CFU/ml (time kill)", "setting": "WHO X, 4X MIC, 24 hr", "result": 1.95, "unit": "Log10CFU/ml"},
      {"measurement": "Log10CFU/ml (time kill)", "setting": "WHO X, 8X MIC, 0 hr", "result": 6.02, "unit": "Log10CFU/ml"},
      {"measurement": "Log10CFU/ml (time kill)", "setting": "WHO X, 8X MIC, 1 hr", "result": 5.38, "unit": "Log10CFU/ml"},
      {"measurement": "Log10CFU/ml (time kill)", "setting": "WHO X, 8X MIC, 3 hr", "result": 4.18, "unit": "Log10CFU/ml"},
      {"measurement": "Log10CFU/ml (time kill)", "setting": "WHO X, 8X MIC, 6 hr", "result": 1.95, "unit": "Log10CFU/ml"},
      {"measurement": "Log10CFU/ml (time kill)", "setting": "WHO X, 8X MIC, 10 hr", "result": 1.95, "unit": "Log10CFU/ml"},
      {"measurement": "Log10CFU/ml (time kill)", "setting": "WHO X, 8X MIC, 24 hr", "result": 1.95, "unit": "Log10CFU/ml"},
      {"measurement": "Log10CFU/ml (time kill)", "setting": "WHO X, 16X MIC, 0 hr", "result": 5.84, "unit": "Log10CFU/ml"},
      {"measurement": "Log10CFU/ml (time kill)", "setting": "WHO X, 16X MIC, 1 hr", "result": 5.53, "unit": "Log10CFU/ml"},
      {"measurement": "Log10CFU/ml (time kill)", "setting": "WHO X, 16X MIC, 3 hr", "result": 4.68, "unit": "Log10CFU/ml"},
      {"measurement": "Log10CFU/ml (time kill)", "setting": "WHO X, 16X MIC, 6 hr", "result": 2.00, "unit": "Log10CFU/ml"},
      {"measurement": "Log10CFU/ml (time kill)", "setting": "WHO X, 16X MIC, 10 hr", "result": 1.95, "unit": "Log10CFU/ml"},
      {"measurement": "Log10CFU/ml (time kill)", "setting": "WHO X, 16X MIC, 24 hr", "result": 1.95, "unit": "Log10CFU/ml"},
      {"measurement": "Log10CFU/ml (time kill)", "setting": "WHO Y, 2X MIC, 0 hr", "result": 5.53, "unit": "Log10CFU/ml"},
      {"measurement": "Log10CFU/ml (time kill)", "setting": "WHO Y, 2X MIC, 1 hr", "result": 5.54, "unit": "Log10CFU/ml"},
      {"measurement": "Log10CFU/ml (time kill)", "setting": "WHO Y, 2X MIC, 3 hr", "result": 4.30, "unit": "Log10CFU/ml"},
      {"measurement": "Log10CFU/ml (time kill)", "setting": "WHO Y, 2X MIC, 6 hr", "result": 3.26, "unit": "Log10CFU/ml"},
      {"measurement": "Log10CFU/ml (time kill)", "setting": "WHO Y, 2X MIC, 10 hr", "result": 1.95, "unit": "Log10CFU/ml"},
      {"measurement": "Log10CFU/ml (time kill)", "setting": "WHO Y, 2X MIC, 24 hr", "result": 1.95, "unit": "Log10CFU/ml"},
      {"measurement": "Log10CFU/ml (time kill)", "setting": "WHO Y, 4X MIC, 0 hr", "result": 5.59, "unit": "Log10CFU/ml"},
      {"measurement": "Log10CFU/ml (time kill)", "setting": "WHO Y, 4X MIC, 1 hr", "result": 4.00, "unit": "Log10CFU/ml"},
      {"measurement": "Log10CFU/ml (time kill)", "setting": "WHO Y, 4X MIC, 3 hr", "result": 3.61, "unit": "Log10CFU/ml"},
      {"measurement": "Log10CFU/ml (time kill)", "setting": "WHO Y, 4X MIC, 6 hr", "result": 1.95, "unit": "Log10CFU/ml"},
      {"measurement": "Log10CFU/ml (time kill)", "setting": "WHO Y, 4X MIC, 10 hr", "result": 1.95, "unit": "Log10CFU/ml"},
      {"measurement": "Log10CFU/ml (time kill)", "setting": "WHO Y, 4X MIC, 24 hr", "result": 1.95, "unit": "Log10CFU/ml"},
      {"measurement": "Log10CFU/ml (time kill)", "setting": "WHO Y, 8X MIC, 0 hr", "result": 5.53, "unit": "Log10CFU/ml"},
      {"measurement": "Log10CFU/ml (time kill)", "setting": "WHO Y, 8X MIC, 1 hr", "result": 4.30, "unit": "Log10CFU/ml"},
      {"measurement": "Log10CFU/ml (time kill)", "setting": "WHO Y, 8X MIC, 3 hr", "result": 3.32, "unit": "Log10CFU/ml"},
      {"measurement": "Log10CFU/ml (time kill)", "setting": "WHO Y, 8X MIC, 6 hr", "result": 2.00, "unit": "Log10CFU/ml"},
      {"measurement": "Log10CFU/ml (time kill)", "setting": "WHO Y, 8X MIC, 10 hr", "result": 1.95, "unit": "Log10CFU/ml"},
      {"measurement": "Log10CFU/ml (time kill)", "setting": "WHO Y, 8X MIC, 24 hr", "result": 1.95, "unit": "Log10CFU/ml"},
      {"measurement": "Log10CFU/ml (time kill)", "setting": "WHO Y, 16X MIC, 0 hr", "result": 5.66, "unit": "Log10CFU/ml"},
      {"measurement": "Log10CFU/ml (time kill)", "setting": "WHO Y, 16X MIC, 1 hr", "result": 4.60, "unit": "Log10CFU/ml"},
      {"measurement": "Log10CFU/ml (time kill)", "setting": "WHO Y, 16X MIC, 3 hr", "result": 3.56, "unit": "Log10CFU/ml"},
      {"measurement": "Log10CFU/ml (time kill)", "setting": "WHO Y, 16X MIC, 6 hr", "result": 1.95, "unit": "Log10CFU/ml"},
      {"measurement": "Log10CFU/ml (time kill)", "setting": "WHO Y, 16X MIC, 10 hr", "result": 1.95, "unit": "Log10CFU/ml"},
      {"measurement": "Log10CFU/ml (time kill)", "setting": "WHO Y, 16X MIC, 24 hr", "result": 1.95, "unit": "Log10CFU/ml"},
      {"measurement": "Log10CFU/ml (time kill)", "setting": "WHO Z, 2X MIC, 0 hr", "result": 5.84, "unit": "Log10CFU/ml"},
      {"measurement": "Log10CFU/ml (time kill)", "setting": "WHO Z, 2X MIC, 1 hr", "result": 5.75, "unit": "Log10CFU/ml"},
      {"measurement": "Log10CFU/ml (time kill)", "setting": "WHO Z, 2X MIC, 3 hr", "result": 4.96, "unit": "Log10CFU/ml"},
      {"measurement": "Log10CFU/ml (time kill)", "setting": "WHO Z, 2X MIC, 6 hr", "result": 4.16, "unit": "Log10CFU/ml"},
      {"measurement": "Log10CFU/ml (time kill)", "setting": "WHO Z, 2X MIC, 10 hr", "result": 3.11, "unit": "Log10CFU/ml"},
      {"measurement": "Log10CFU/ml (time kill)", "setting": "WHO Z, 2X MIC, 24 hr", "result": 1.95, "unit": "Log10CFU/ml"},
      {"measurement": "Log10CFU/ml (time kill)", "setting": "WHO Z, 4X MIC, 0 hr", "result": 5.92, "unit": "Log10CFU/ml"},
      {"measurement": "Log10CFU/ml (time kill)", "setting": "WHO Z, 4X MIC, 1 hr", "result": 5.60, "unit": "Log10CFU/ml"},
      {"measurement": "Log10CFU/ml (time kill)", "setting": "WHO Z, 4X MIC, 3 hr", "result": 4.14, "unit": "Log10CFU/ml"},
      {"measurement": "Log10CFU/ml (time kill)", "setting": "WHO Z, 4X MIC, 6 hr", "result": 2.48, "unit": "Log10CFU/ml"},
      {"measurement": "Log10CFU/ml (time kill)", "setting": "WHO Z, 4X MIC, 10 hr", "result": 2.00, "unit": "Log10CFU/ml"},
      {"measurement": "Log10CFU/ml (time kill)", "setting": "WHO Z, 4X MIC, 24 hr", "result": 1.95, "unit": "Log10CFU/ml"},
      {"measurement": "Log10CFU/ml (time kill)", "setting": "WHO Z, 8X MIC, 0 hr", "result": 5.91, "unit": "Log10CFU/ml"},
      {"measurement": "Log10CFU/ml (time kill)", "setting": "WHO Z, 8X MIC, 1 hr", "result": 5.49, "unit": "Log10CFU/ml"},
      {"measurement": "Log10CFU/ml (time kill)", "setting": "WHO Z, 8X MIC, 3 hr", "result": 3.34, "unit": "Log10CFU/ml"},
      {"measurement": "Log10CFU/ml (time kill)", "setting": "WHO Z, 8X MIC, 6 hr", "result": 2.60, "unit": "Log10CFU/ml"},
      {"measurement": "Log10CFU/ml (time kill)", "setting": "WHO Z, 8X MIC, 10 hr", "result": 1.95, "unit": "Log10CFU/ml"},
      {"measurement": "Log10CFU/ml (time kill)", "setting": "WHO Z, 8X MIC, 24 hr", "result": 1.95, "unit": "Log10CFU/ml"},
      {"measurement": "Log10CFU/ml (time kill)", "setting": "WHO Z, 16X MIC, 0 hr", "result": 5.97, "unit": "Log10CFU/ml"},
      {"measurement": "Log10CFU/ml (time kill)", "setting": "WHO Z, 16X MIC, 1 hr", "result": 5.43, "unit": "Log10CFU/ml"},
      {"measurement": "Log10CFU/ml (time kill)", "setting": "WHO Z, 16X MIC, 3 hr", "result": 3.11, "unit": "Log10CFU/ml"},
      {"measurement": "Log10CFU/ml (time kill)", "setting": "WHO Z, 16X MIC, 6 hr", "result": 2.48, "unit": "Log10CFU/ml"},
      {"measurement": "Log10CFU/ml (time kill)", "setting": "WHO Z, 16X MIC, 10 hr", "result": 1.95, "unit": "Log10CFU/ml"},
      {"measurement": "Log10CFU/ml (time kill)", "setting": "WHO Z, 16X MIC, 24 hr", "result": 1.95, "unit": "Log10CFU/ml"}
    ]}
  ]
}
